Measurements taken from article PMC12221368, “Long AKAP18 isoforms anchor ubiquitin specific proteinases and coordinate calcium reuptake at the sarcoplasmic reticulum” (The Journal of Biological Chemistry, 2025).
These are yes or no findings as the source states them, for the method shown. For some of these results: Binding seen in cells or lysates may run through a third protein. Some results given as binding are weak or reduced against the parent protein; the word gives no strength. For some of these results: Sequences can lack the tags named with a protein. Each block holds one molecule with its values, some of them ahead of it.

Sequences of proteins named here, by UniProt entry; tags and fusion partners are left off. A change or cut given only in a name is not applied to a line headed by its entry. A line that says so, or that is headed by a name, gives the form on record, which may keep a tag or linker. Residues count along the entry.
UniProt Q6JP77: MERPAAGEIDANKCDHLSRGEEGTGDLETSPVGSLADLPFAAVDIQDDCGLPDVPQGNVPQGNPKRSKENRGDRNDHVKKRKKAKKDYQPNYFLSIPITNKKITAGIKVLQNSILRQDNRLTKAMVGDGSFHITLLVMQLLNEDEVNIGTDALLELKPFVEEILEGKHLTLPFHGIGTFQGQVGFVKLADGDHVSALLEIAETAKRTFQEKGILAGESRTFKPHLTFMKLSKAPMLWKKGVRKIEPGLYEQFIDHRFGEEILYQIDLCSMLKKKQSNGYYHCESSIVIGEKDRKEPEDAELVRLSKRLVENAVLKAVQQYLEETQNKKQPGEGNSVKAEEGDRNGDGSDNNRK
central (CD) domain of AKAP18: residues 88-292 of Q6JP77
SERCA2 (endogenous, human cardiomyocytes) (P16615-2, form named): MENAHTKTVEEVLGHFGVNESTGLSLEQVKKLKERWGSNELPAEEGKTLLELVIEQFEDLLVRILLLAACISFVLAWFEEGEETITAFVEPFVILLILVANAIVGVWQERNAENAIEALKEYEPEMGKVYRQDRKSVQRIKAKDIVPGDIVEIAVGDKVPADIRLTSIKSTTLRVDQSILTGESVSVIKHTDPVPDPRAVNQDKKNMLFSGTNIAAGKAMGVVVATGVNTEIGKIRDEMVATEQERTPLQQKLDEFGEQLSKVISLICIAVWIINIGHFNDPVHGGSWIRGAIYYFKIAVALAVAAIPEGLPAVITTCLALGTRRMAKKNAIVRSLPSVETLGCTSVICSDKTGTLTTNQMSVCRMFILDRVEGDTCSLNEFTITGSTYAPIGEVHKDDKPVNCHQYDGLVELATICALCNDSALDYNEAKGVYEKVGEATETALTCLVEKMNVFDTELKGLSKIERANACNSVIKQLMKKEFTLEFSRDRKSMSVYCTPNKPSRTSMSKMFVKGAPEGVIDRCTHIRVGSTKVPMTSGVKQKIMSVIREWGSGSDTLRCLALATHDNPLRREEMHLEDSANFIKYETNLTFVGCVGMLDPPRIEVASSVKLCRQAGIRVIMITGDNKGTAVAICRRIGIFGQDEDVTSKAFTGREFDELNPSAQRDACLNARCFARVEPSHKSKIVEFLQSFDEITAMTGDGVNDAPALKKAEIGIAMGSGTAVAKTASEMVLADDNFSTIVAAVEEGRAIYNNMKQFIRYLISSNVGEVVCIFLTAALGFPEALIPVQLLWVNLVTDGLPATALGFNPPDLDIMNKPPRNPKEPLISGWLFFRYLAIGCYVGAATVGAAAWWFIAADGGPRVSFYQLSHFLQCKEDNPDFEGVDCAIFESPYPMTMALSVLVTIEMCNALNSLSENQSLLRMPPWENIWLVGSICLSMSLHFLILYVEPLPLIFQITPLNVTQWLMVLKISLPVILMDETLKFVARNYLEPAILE

How the values were obtained:
[1] = biological target: T1, USP4 (endogenous, human cardiomyocytes) (human (endogenous in HCM)) (UniProt Q13107); assay: co-IP; endogenous proteins, HCM (human cardiomyocyte) lysates; USP4 immune complexes against IgG control, immunoblot; in Figure 5A lysates with 32P ATP, without agonist, with cAMP stimulation, or with cAMP and PKI
T1 sequence: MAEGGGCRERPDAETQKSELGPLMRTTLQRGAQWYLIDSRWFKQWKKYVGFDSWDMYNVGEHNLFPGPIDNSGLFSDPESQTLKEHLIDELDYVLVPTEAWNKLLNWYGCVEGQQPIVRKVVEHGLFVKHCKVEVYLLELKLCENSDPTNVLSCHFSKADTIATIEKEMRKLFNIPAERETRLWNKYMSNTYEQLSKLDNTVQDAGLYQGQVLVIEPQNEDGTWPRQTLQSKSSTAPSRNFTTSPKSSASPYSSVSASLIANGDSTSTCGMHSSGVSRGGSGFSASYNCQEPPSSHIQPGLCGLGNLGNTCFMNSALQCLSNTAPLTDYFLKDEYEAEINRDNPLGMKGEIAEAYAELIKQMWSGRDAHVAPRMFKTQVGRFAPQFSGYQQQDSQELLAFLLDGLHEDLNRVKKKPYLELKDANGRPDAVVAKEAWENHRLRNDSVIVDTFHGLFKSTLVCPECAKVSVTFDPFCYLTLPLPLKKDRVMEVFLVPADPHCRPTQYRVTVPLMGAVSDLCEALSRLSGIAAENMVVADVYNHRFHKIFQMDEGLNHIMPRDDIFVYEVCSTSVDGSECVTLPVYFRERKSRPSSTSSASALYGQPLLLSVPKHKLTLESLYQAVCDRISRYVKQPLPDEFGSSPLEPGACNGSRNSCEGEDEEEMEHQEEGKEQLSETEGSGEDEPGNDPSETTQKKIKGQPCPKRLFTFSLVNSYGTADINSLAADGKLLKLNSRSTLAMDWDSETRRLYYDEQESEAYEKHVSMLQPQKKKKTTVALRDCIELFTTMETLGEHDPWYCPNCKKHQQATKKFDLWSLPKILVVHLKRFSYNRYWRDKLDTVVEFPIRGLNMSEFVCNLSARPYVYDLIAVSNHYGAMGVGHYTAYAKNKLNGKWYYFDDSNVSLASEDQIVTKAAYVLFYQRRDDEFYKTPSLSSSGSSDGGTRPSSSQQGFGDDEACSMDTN

GFP-AKAP18δ = GFP-AKAP18δ (UniProt Q6JP77 1-353); assay: co-IP; HEK293 cells cotransfected with GFP-AKAP18 isoforms and V5-USP4; lysis buffer 25 mM Hepes pH 7.4, 150 mM NaCl, 1% Triton X-100; rabbit anti-GFP IgG and protein A agarose, 2 h at 4 °C; anti-V5 blot; IgG controls
GST-AKAP18δ = GST-AKAP18δ (UniProt Q6JP77); assay: pull-down; GST pull-down of purified FLAG-USP4 with purified GST-AKAP18δ; SDS-PAGE with Coomassie staining and anti-FLAG immunoblot; both purified
[2] = biological target: central (CD) domain of AKAP18 (UniProt Q6JP77); assay: cross-linking; purified USP4 with the central domain of AKAP18 in 25 mM sodium phosphate buffer pH 7.4, PIR cross-linker (BDP; 0.1-1.0 mM); Coomassie gel; trypsin, LC-MS, xQuest; both purified

binding [1]: binds
Molecule: SERCA2 (endogenous, human cardiomyocytes) (from UniProt P16615-2 1-997)

binding (GFP-AKAP18δ): binds
B1: V5-tagged USP4 (enzyme, UniProt Q13107 1-963, looked up)
chain: MAEGGGCRERPDAETQKSELGPLMRTTLQRGAQWYLIDSRWFKQWKKYVGFDSWDMYNVGEHNLFPGPIDNSGLFSDPESQTLKEHLIDELDYVLVPTEAWNKLLNWYGCVEGQQPIVRKVVEHGLFVKHCKVEVYLLELKLCENSDPTNVLSCHFSKADTIATIEKEMRKLFNIPAERETRLWNKYMSNTYEQLSKLDNTVQDAGLYQGQVLVIEPQNEDGTWPRQTLQSKSSTAPSRNFTTSPKSSASPYSSVSASLIANGDSTSTCGMHSSGVSRGGSGFSASYNCQEPPSSHIQPGLCGLGNLGNTCFMNSALQCLSNTAPLTDYFLKDEYEAEINRDNPLGMKGEIAEAYAELIKQMWSGRDAHVAPRMFKTQVGRFAPQFSGYQQQDSQELLAFLLDGLHEDLNRVKKKPYLELKDANGRPDAVVAKEAWENHRLRNDSVIVDTFHGLFKSTLVCPECAKVSVTFDPFCYLTLPLPLKKDRVMEVFLVPADPHCRPTQYRVTVPLMGAVSDLCEALSRLSGIAAENMVVADVYNHRFHKIFQMDEGLNHIMPRDDIFVYEVCSTSVDGSECVTLPVYFRERKSRPSSTSSASALYGQPLLLSVPKHKLTLESLYQAVCDRISRYVKQPLPDEFGSSPLEPGACNGSRNSCEGEDEEEMEHQEEGKEQLSETEGSGEDEPGNDPSETTQKKIKGQPCPKRLFTFSLVNSYGTADINSLAADGKLLKLNSRSTLAMDWDSETRRLYYDEQESEAYEKHVSMLQPQKKKKTTVALRDCIELFTTMETLGEHDPWYCPNCKKHQQATKKFDLWSLPKILVVHLKRFSYNRYWRDKLDTVVEFPIRGLNMSEFVCNLSARPYVYDLIAVSNHYGAMGVGHYTAYAKNKLNGKWYYFDDSNVSLASEDQIVTKAAYVLFYQRRDDEFYKTPSLSSSGSSDGGTRPSSSQQGFGDDEACSMDTN

binding (GST-AKAP18δ): binds
binding [2]: binds
B2: purified FLAG tagged-USP4 (enzyme, UniProt Q13107 1-963)
chain: MAEGGGCRERPDAETQKSELGPLMRTTLQRGAQWYLIDSRWFKQWKKYVGFDSWDMYNVGEHNLFPGPIDNSGLFSDPESQTLKEHLIDELDYVLVPTEAWNKLLNWYGCVEGQQPIVRKVVEHGLFVKHCKVEVYLLELKLCENSDPTNVLSCHFSKADTIATIEKEMRKLFNIPAERETRLWNKYMSNTYEQLSKLDNTVQDAGLYQGQVLVIEPQNEDGTWPRQTLQSKSSTAPSRNFTTSPKSSASPYSSVSASLIANGDSTSTCGMHSSGVSRGGSGFSASYNCQEPPSSHIQPGLCGLGNLGNTCFMNSALQCLSNTAPLTDYFLKDEYEAEINRDNPLGMKGEIAEAYAELIKQMWSGRDAHVAPRMFKTQVGRFAPQFSGYQQQDSQELLAFLLDGLHEDLNRVKKKPYLELKDANGRPDAVVAKEAWENHRLRNDSVIVDTFHGLFKSTLVCPECAKVSVTFDPFCYLTLPLPLKKDRVMEVFLVPADPHCRPTQYRVTVPLMGAVSDLCEALSRLSGIAAENMVVADVYNHRFHKIFQMDEGLNHIMPRDDIFVYEVCSTSVDGSECVTLPVYFRERKSRPSSTSSASALYGQPLLLSVPKHKLTLESLYQAVCDRISRYVKQPLPDEFGSSPLEPGACNGSRNSCEGEDEEEMEHQEEGKEQLSETEGSGEDEPGNDPSETTQKKIKGQPCPKRLFTFSLVNSYGTADINSLAADGKLLKLNSRSTLAMDWDSETRRLYYDEQESEAYEKHVSMLQPQKKKKTTVALRDCIELFTTMETLGEHDPWYCPNCKKHQQATKKFDLWSLPKILVVHLKRFSYNRYWRDKLDTVVEFPIRGLNMSEFVCNLSARPYVYDLIAVSNHYGAMGVGHYTAYAKNKLNGKWYYFDDSNVSLASEDQIVTKAAYVLFYQRRDDEFYKTPSLSSSGSSDGGTRPSSSQQGFGDDEACSMDTN
